Results reported in patent publication US6657045 (NEW ENGLAND MEDICAL CENTER HOSPITALS, dated 2003).

Target: GP900 (>900,000 Mr glycoprotein of Cryptosporidium parvum) (Cryptosporidium parvum)
Test: biotinylated lectin blot of shed proteins

| Binder | binding |
| --- | --- |
| Dolichos biflorus agglutinin (protein, biotinylated) ANIQSFSFKNFNSPSFILQGDATVSSGKLQLTKVKENGIPTPSSLGRAFYSSPIQIYDKSTGAVASWATSFTVKISAPSKASFADGIAFALVPVGSEPRRNGGYLGVFDSDVYNNSAQTVAVEFDTFSNSGWDPSMKHIGIDVNSIKSIATVSWDLANGENAEILITYNAATSLLVASLVHPSRRTSYILSERVDITNELPEYVSVGFSATTGLSEGYIETHDVLSWSFASKLPDDSTAEPLDLASYLVRNVL | binds |
| Arachis hypogea agglutinin (protein, biotinylated) AETVSFNFNSFSEGNPAINFQGDVTVLSNGNIQLTNLNKVNSVGRVLYAMPVRIWSSATGNVASFLTSFSFEMKDIKDYDPADGIIFFIAPEDTQIPAGSIGGGTLGVSDTKGAGHFVGVEFDTYSNSEYNDPPTDHVGIDVNSVDSVKTVPWNSVSGAVVKVTVIYDSSTKTLSVAVTNDNGDITTIAQVVDLKAKLPERVKFGFSASGSLGGRQIHLIRSWSFTSTLITTTRRS | no binding |

These are yes or no findings as the source states them, for the method shown. A result given as binding can be weak or reduced; the word gives no strength. Tags and fused reporters may be left off the sequences shown.
